Mtb growth Cornell: 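Whole-cell assay for inhibitors of Mycobacterium tuberculosis growth, labelled Cornell in the record; the read-out is not stated. The concentration is filed as 10 mM, unlikely as a test dose, so the dose is not known. The record gives no direction; compounds strong in two other growth screens of this library score well above the rest, so higher reads as stronger inhibition. Of about 53,000 compounds tested this way, about 900 (1.7%) reached 50% or more in at least one test.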
Mtb heat-shock: 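Assay on Mycobacterium tuberculosis, filed only as a heat shock assay from Cornell; the read-out is not stated. The concentration is filed as 10 mM, unlikely as a test dose, so the dose is not known. Direction is inferred from retests: higher values go with stronger inhibition. Size under these conditions: about 69,000 compounds, about 930 of them at 50% or above in at least one test.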

Each number is a percent effect as filed. How 0% and 100% were set is not recorded. Most values in the screen are low, and negative values occur. This is an unselected part of the compounds tested. A dash means the value is not listed here; it may have been measured.

structure,Mtb growth Cornell,Mtb heat-shock
O=C(O)C(F)(F)F.[H][C@@]12CCN(C(C)=O)C[C@]1(C(=O)NCCc1ccccn1)CCO2,-2.258,-8.093
CC(NC(=O)N(C)C1CC1)c1ccc(Oc2cccnc2)c(F)c1 (centres undefined),32.38,-4.53
Cn1cnnc1SC1CCc2ccccc2NC1=O (centres undefined),10.09,6.225
Cc1ccc(N2CCC(C(=O)O)(n3ccc(C(C)C)n3)CC2)nn1,-0.358,-1.888
Cc1cnn(C2CN(Cc3nc4cc(Cl)ccc4n3C)C2)c1,63.15,84.58
Cc1ccc(C(=O)NC2CCCCNC2=O)c(=O)[nH]1 (centres undefined),-20.87,-4.84
CCS(=O)(=O)N1CCC(c2nccn2Cc2ccccn2)CC1,12.67,15.56
CN1C(=O)CO[C@H](c2ccc(NC(=O)c3cccnc3)cc2)[C@H]1CO,10.63,4.551
COCCOc1cccc(C(=O)N2CCCC(n3ccnc3C)C2)c1 (centres undefined),29.78,21.6
Cc1cc(S(=O)(=O)N2CCCc3cc(F)c(F)cc32)sc1C(=O)O,-19.24,-7.948
CN(C)CC(=O)N1Cc2cc(-c3cc[nH]n3)ccc2C1c1cnco1 (centres undefined),23.92,0.7261
CCCN(Cc1ccc(S(=O)(=O)NC)cc1)Cc1ccccc1OC,-,-30.71
CCOCCOC(C)C(=O)NCc1ccc(N2CCCCC2)cc1 (centres undefined),22.74,-16.61
O=C1C(CS(=O)(=O)Nc2ccc(Br)cc2)=NC(=O)n2cccc21,17.38,9.666
CCn1c(C2CCCN(C(=O)c3ccc[nH]3)C2)nn(CCN(C)C)c1=O (centres undefined),17.77,12.38
[H][C@@]12C[C@H](c3ccncn3)O[C@@]1([H])CCN(c1cc(OC)ncn1)C2,-27.72,28.93
O=C(NCC1CC1)C1CN(c2ncccn2)Cc2ccnn2C1.O=C(O)C(F)(F)F.O=C(O)C(F)(F)F (centres undefined),8.452,12.91
CC(C)C(NC(=O)c1ccc(Cl)cc1Cl)C(=O)Nc1cnn(C)c1 (centres undefined),-,-7.43
CN(C)C1CCCN(C(=O)NCCc2cc(F)ccc2F)C1 (centres undefined),-4.128,-9.632
Cc1ccc(C(=O)NC2CCOc3ccccc32)cc1S(C)(=O)=O (centres undefined),-,-8.405
NC(=O)C1CCN(C(=O)c2cc(S(=O)(=O)N3CCCC3)cs2)CC1,4.454,3.215
Cc1nn(C)c(Cl)c1C(=O)NCC1(C(N)=O)CCOCC1,-6.965,7.344
O=C(O)C(F)(F)F.O=C(O)C(F)(F)F.O=c1ccc2c(n1Cc1ccncc1)CCN(Cc1ccoc1)CC2,9.813,-13.81
CCCC(O)CN1CC(C)(C)CN(C(=O)CCc2ccccc2)CC1=O (centres undefined),-15.96,10.24
Nc1ccnc(C(=O)N2CCCC3(CCC(=O)N(C4CCCC4)C3)C2)c1 (centres undefined),12.16,-8.092
CC(=O)N1CCC2(CC1)CN(C(C)=O)CC21CCNC1=O (centres undefined),-,-19.01

Once more, the final 3:

* CCCC(O)CN1CC(C)(C)CN(C(=O)CCc2ccccc2)CC1=O (centres undefined) : Mtb growth Cornell: -15.96%; Mtb heat-shock: 10.24%
* Nc1ccnc(C(=O)N2CCCC3(CCC(=O)N(C4CCCC4)C3)C2)c1 (centres undefined) : Mtb growth Cornell: 12.16%; Mtb heat-shock: -8.092%
* CC(=O)N1CCC2(CC1)CN(C(C)=O)CC21CCNC1=O (centres undefined) : Mtb heat-shock: -19.01%

From ChEMBL document CHEMBL3988442, “University of Dundee, Small-Polar-MMV Screening Library” (2021).